Hit rate of the full screen: of about 390,000 compounds, about 610 (0.16%) were called active. The shares of active, inactive and inconclusive entries below differ from those in the screen. The call rests on the fitted dose curve; in most records, active means well fitted inhibition curve with a large enough effect; inconclusive means small, poorly fitted or top-dose-only effect, or effect the other way, or another doubt; inactive means no such curve, though single readings can be large or run the other way. Potencies beside an inconclusive call are fits to weak or partial responses and may not hold up.
Experiment: Nrf2 qHTS screen for inhibitors: counterscreen for cytotoxicity
Conditions: A549 ARE-Fluc cells, CellTiter-Fluor viability, 18-24 h; activity change, negative = cytotoxicity: at 46 µM (top of the series)
Summary of the method: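 Cytotoxicity counterscreen: CellTiter-Fluor fluorescence was measured in A549 ARE_Fluc cells after 18-24 h of compound exposure in a concentration series. The subsequent BugLite luminescent read reports ARE-luciferase activity.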
On the % scale 0 is the no-effect control and ±100 the full control effect; potency means the concentration at half of the fitted maximal effect.

Row | Structure (SMILES) | activity change, negative = cytotoxicity | Potency
1 | CN(C)c1oc(-c2ccc(OCc3ccccc3)cc2)nc1C#N | inactive: 4.63% | –
2 | CC(=O)OC(C)C1C2=C(C(=O)CC1(C)O)C(=O)c1c(ccc(-c3ccc4c(c3O)C(=O)C3=C(C4=O)C(C(C)OC(C)=O)C(C)(O)CC3=O)c1O)C2=O (stereo not given) | – | inconclusive: 8.2 µM [falling, partial curve, poor fit]
3 | O=[N+]([O-])c1ccc2[nH]c3c(c2c1)CCCC3O (stereo not given) | – | inconclusive: 18.4 µM [falling, partial curve, poor fit]
4 | CC1(C(=O)Nc2cccc(-n3cnnn3)c2)Cc2ccccc2C(=O)O1 (stereo not given) | inactive: -4.93% | –
5 | CCN(CC)CCN(C(=O)c1ccc(CN2CCCCC2)o1)C(C(=O)NC1CCCCC1)c1ccc(F)cc1 (stereo not given) | – | inconclusive: 13 µM [falling, partial curve, poor fit]
6 | CCCCN1C(=O)c2ccc(C(=O)Nc3cccc(C)c3C)cc2C1=O | inactive: 2.12% | –
7 | Cc1cc(C)cc(C(=O)N(CCc2ccccc2)C2CC3CCC(C2)N3C)c1 (stereo not given) | – | inconclusive: 20.6 µM [falling, single point]
8 | Cc1ccc2[nH]c3c(c2c1)CN(C(=O)CN1CCN(c2cccc(C)c2C)CC1)CC3 | – | inconclusive: 14.6 µM [falling, partial curve, poor fit]
9 | O=C(Nc1ccncc1Cl)c1ccncc1 | inactive: -0.47% | –
10 | Nc1c(N(CCC2=CCCCC2)C(=O)COc2ccc(F)cc2)c(=O)[nH]c(=O)n1Cc1ccccc1 | – | inconclusive: 23.1 µM [falling, single point]
11 | O=C(NCCc1ccc(Cl)cc1)c1cc(-c2ccncc2)nc2ccccc12 | – | inconclusive: 20.6 µM [falling, partial curve, poor fit]
12 | C=C1C(O)[C@@H]2O[C@]3(CC[C@H](/C=C/C(C)[C@@H]4CC(C)=CC5(O[C@H](C[C@@](C)(O)CO)CCC5O)O4)O3)CC[C@H]2O[C@@H]1C(O)CC(C)[C@H]1OC2(CCCCO2)CCC1C (stereo not given in full) | – | inconclusive: 18.4 µM [falling, partial curve, poor fit]
13 | COc1cc2cc[n+](Cc3ccc([N+](=O)[O-])cc3)cc2cc1OC | inactive: 3.99% | –
14 | O=C1CCc2cc(S(=O)(=O)Nc3ccc(Cl)c(Cl)c3)ccc2N1 | – | inconclusive: 10.3 µM [activator, partial curve, poor fit]
15 | Cc1nc2ccc(NC(=O)c3ccc(S(=O)(=O)N4CCOCC4)cc3)cc2s1 | inactive: -15.6% | –
16 | COc1cccc(C(=O)Nc2c(C(=O)NC(C)(C)C)oc3ccccc23)c1 | inactive: 5.85% | –
17 | O=C(c1ccc(Br)cc1)c1cc([N+](=O)[O-])ccc1N1CCCCC1 | – | inconclusive: 14.6 µM [falling, partial curve]
18 | CN(C)c1ccc(C(=O)c2ccc(N(C)C)c(N)c2)cc1N | – | inconclusive: 18.4 µM [falling, partial curve, poor fit]
19 | Cn1nnnc1Sc1ncnc2scc(-c3ccc[nH]3)c12 | – | inconclusive: 32.6 µM [falling, partial curve, poor fit]
20 | COc1ccc(CCn2c(N)c(C(=O)NCc3ccco3)c3nc4ccccc4nc32)cc1 | inactive: -7.76% | –
21 | Oc1cccc(Nc2c3ccccc3nc3ccccc23)c1 | – | inconclusive: 14.6 µM [falling, partial curve, poor fit]
22 | Cc1cccc(N2CCN(S(=O)(=O)c3ccc4c(c3)NC(=O)C(C)S4)CC2)c1C (stereo not given) | inactive: -6.12% | –

Row | Structure (SMILES) | activity change, negative = cytotoxicity | Potency
23 | CC(=O)Nc1ccc2c(c1)N(C(=O)CN(C)C)c1ccccc1CC2 | – | inconclusive: 32.6 µM [activator, partial curve, poor fit]
24 | CC(=O)c1ccc(N2CCC(c3cc(-c4ccc(Cl)cc4)n[nH]3)CC2)c([N+](=O)[O-])c1 | – | inconclusive: 23.1 µM [falling, partial curve, poor fit]
25 | CCN(C(=O)C=Cc1ccco1)c1ccccc1 | inactive: 4.16% | –
26 | CC12CC(c3ccccc3O1)N(C(=O)c1ccco1)C(=S)N2c1ccccc1 (stereo not given) | – | inconclusive: 4.61 µM [falling, single point]
27 | Cc1sc(-c2ccccn2)nc1OC(=O)c1ccc(Cl)cc1 | – | inconclusive: 16.4 µM [activator, partial curve, poor fit]
28 | S=C(Nc1cccc(Br)c1)N1CCn2cccc2C1c1cccnc1 (stereo not given) | – | inconclusive: 29.1 µM [falling, single point]
29 | CCN(CC)CCCNC(=O)Cn1nc(N2CCN(c3ccccc3OC)CC2)ccc1=O | inconclusive: -59.3% [activator] | –
30 | O=C(Cc1cccc2ccccc12)Nc1ccc(N2CCOCC2)cc1 | – | inconclusive: 29.1 µM [falling, partial curve, poor fit]
31 | C=C(C)C1CCC2(C(=O)O)CCC3(C)C(CCC4C5(C)C(C=O)C(O)C(C)(C)C5CCC43C)C12 (stereo not given) | – | inconclusive: 29.1 µM [falling, partial curve, poor fit]
32 | CCN1C=C(Cc2ccc(OC)cc2)C2=C(C1)C(c1ccc(OC)cc1)C(C#N)=C(N)O2 (stereo not given) | inactive: -2.89% | –
33 | COc1cc(OC)c(N(C)C(=O)c2nn(C)c3c2CSc2ccccc2-3)cc1Cl | inactive: 0.339% | –
34 | COc1ccc2nc(-c3ccc(N(C)C)cc3)sc2c1 | – | inconclusive: 3.66 µM [activator, full curve, poor fit]
35 | CNc1ccc(Br)cc(C(=O)/C=C/c2cc(OC)ccc2OC)c1=O | – | inconclusive: 23.1 µM [falling, partial curve, poor fit]
36 | CCCNC(=O)c1ccc2c(=O)c(O)c(-c3ccc(C)cc3)[nH]c2c1 | inactive: -3.41% | –
37 | Cc1ccc(S(=O)(=O)Nc2ccc3cc([N+](=O)[O-])ccc3c2[N+](=O)[O-])cc1 | – | inconclusive: 16.4 µM [falling, partial curve]
38 | NC(N)=N/N=C/c1ccc(OS(=O)(=O)c2ccccc2)cc1 | – | inconclusive: 16.4 µM [falling, partial curve]
39 | O=C(Nc1cccc(Cl)c1)Nc1ccccc1OCc1cc(=O)n2ccccc2n1 | inactive: -6.6% | –
40 | Cc1cc(C)c2oc(-c3cccc(NC(=O)c4ccco4)c3)nc2c1 | inactive: 1.58% | –
41 | CCCc1nc2sc3c(SCC(=O)NCc4ccco4)ncnc3c2c2c1CCC2 | – | inconclusive: 6.51 µM [falling, single point]
42 | Cn1c(SCc2ccc(F)cc2)nc2ccc(C(=O)NCc3ccc(F)cc3)cc21 | – | inconclusive: 16.4 µM [falling, partial curve]
43 | CCC1CN(C(=O)N2CCC(C(=O)NCc3ccc(OC)cc3OC)CC2)c2cc(C)ccc2O1 (stereo not given) | – | inconclusive: 32.6 µM [falling, partial curve, poor fit]
44 | O=C(CCNS(=O)(=O)c1ccc2[nH]c(=O)oc2c1)NCc1ccccc1 | inactive: 6.2% | –

Row | Structure (SMILES) | activity change, negative = cytotoxicity | Potency
45 | CC(C)c1ccc(/C=C(\c2nc3ccccc3[nH]2)S(=O)(=O)c2ccccc2)cc1 | – | inconclusive: 23.1 µM [falling, single point]
46 | O=C(N/N=C/c1ccccn1)c1ccc(Cl)cc1 | – | inconclusive: 20.6 µM [falling, partial curve, poor fit]
47 | CCN(CC)CCCNC(=O)c1cc2nc3c(c(C(F)(F)F)n2n1)CCc1ccccc1-3 | – | inconclusive: 29.1 µM [falling, single point]
48 | CCOC(=O)c1c(C)[nH]c(N=Nc2ccccc2C)c1C | – | inconclusive: 6.51 µM [falling, partial curve, poor fit]
49 | COc1ccc(NS(=O)(=O)c2cccc(NC(=O)c3ccccn3)c2)cc1 | – | inconclusive: 29.1 µM [falling, single point]
50 | COc1ccc(NC(=O)/C(C#N)=C/c2ccc(-c3ccccc3C(=O)O)o2)cc1 | – | inconclusive: 18.4 µM [falling, partial curve]
51 | Cc1ccccc1-c1nc(CNC(=O)Nc2ccccc2)c(C)o1 | inactive: -1.88% | –
52 | Cc1cccc(C(=O)NNC2=C(C(=O)C(F)(F)F)CCC2)c1O | – | inconclusive: 18.4 µM [falling, single point]
53 | CCOc1ccc(C(=O)N/N=C(\c2ccccc2)c2ccccn2)cc1 | – | inconclusive: 11.6 µM [falling, partial curve, poor fit]
54 | COc1ccc(/C=C2\CCc3ccccc3C2=O)cc1Cn1cccn1 | inactive: -17.5% | –
55 | Cc1ccc(-n2c(O)c(/C=N/c3ncn[nH]3)c3ccccc3c2=O)cc1 | – | inconclusive: 18.4 µM [falling, single point]
56 | COc1ccc(C2Nc3ccccc3C(=O)N2Cc2ccccc2)cc1COc1cccc(C(F)(F)F)c1 (stereo not given) | inactive: 0.172% | –
57 | O=C(OCC(=O)c1ccc(Cl)s1)c1ccc(CO)cc1 | inactive: 1.29% | –
58 | Cc1ccc(OC(=O)c2cc(-c3ccc4c(c3)OCCO4)on2)c(C)c1 | inactive: 2.74% | –
59 | O=C(NCC(c1ccco1)N1CCCC1)c1ccc(Cl)c(S(=O)(=O)N2CCc3ccccc32)c1 (stereo not given) | – | active: 8.2 µM
60 | Cc1ccc(Cn2cccc2C2=NC(C)(C)CO2)cc1 | inactive: 12.2% | –
61 | O=C(CSc1cn(CCNC(=O)c2cccs2)c2ccccc12)NCc1ccccc1 | – | inconclusive: 2.31 µM [activator, partial curve, poor fit]
62 | COc1cc2nc(SCC(=O)NCc3ccco3)n(Cc3ccc(Cl)cc3)c(=O)c2cc1OC | – | inconclusive: 20.6 µM [falling, partial curve, poor fit]
63 | C(=N\Nc1nc2ccccc2[nH]1)/c1ccccn1 | – | inconclusive: 32.6 µM [falling, partial curve, poor fit]
64 | CCN=C1S/C(=C/c2ccc(-c3ccc(Cl)cc3C(=O)O)o2)C(=O)N1CC | – | inconclusive: 23.1 µM [falling, partial curve, poor fit]
65 | O=C(Cn1c(=O)n(Cc2ccc3c(c2)OCO3)c(=O)c2oc3ccccc3c21)Nc1ccccc1 | inactive: -0.493% | –

Looked up one by one from above (4):
Row | Structure (SMILES) | activity change, negative = cytotoxicity | Potency
49 | COc1ccc(NS(=O)(=O)c2cccc(NC(=O)c3ccccn3)c2)cc1 | – | inconclusive: 29.1 µM [falling, single point]
55 | Cc1ccc(-n2c(O)c(/C=N/c3ncn[nH]3)c3ccccc3c2=O)cc1 | – | inconclusive: 18.4 µM [falling, single point]
65 | O=C(Cn1c(=O)n(Cc2ccc3c(c2)OCO3)c(=O)c2oc3ccccc3c21)Nc1ccccc1 | inactive: -0.493% | –
62 | COc1cc2nc(SCC(=O)NCc3ccco3)n(Cc3ccc(Cl)cc3)c(=O)c2cc1OC | – | inconclusive: 20.6 µM [falling, partial curve, poor fit]
